{"sequences": {"note": "Chains of the proteins cited; added tags and fusions are not shown. Lines headed by an entry give the natural chain unless they say otherwise; changes in a name come on top.", "UniProt P18054": "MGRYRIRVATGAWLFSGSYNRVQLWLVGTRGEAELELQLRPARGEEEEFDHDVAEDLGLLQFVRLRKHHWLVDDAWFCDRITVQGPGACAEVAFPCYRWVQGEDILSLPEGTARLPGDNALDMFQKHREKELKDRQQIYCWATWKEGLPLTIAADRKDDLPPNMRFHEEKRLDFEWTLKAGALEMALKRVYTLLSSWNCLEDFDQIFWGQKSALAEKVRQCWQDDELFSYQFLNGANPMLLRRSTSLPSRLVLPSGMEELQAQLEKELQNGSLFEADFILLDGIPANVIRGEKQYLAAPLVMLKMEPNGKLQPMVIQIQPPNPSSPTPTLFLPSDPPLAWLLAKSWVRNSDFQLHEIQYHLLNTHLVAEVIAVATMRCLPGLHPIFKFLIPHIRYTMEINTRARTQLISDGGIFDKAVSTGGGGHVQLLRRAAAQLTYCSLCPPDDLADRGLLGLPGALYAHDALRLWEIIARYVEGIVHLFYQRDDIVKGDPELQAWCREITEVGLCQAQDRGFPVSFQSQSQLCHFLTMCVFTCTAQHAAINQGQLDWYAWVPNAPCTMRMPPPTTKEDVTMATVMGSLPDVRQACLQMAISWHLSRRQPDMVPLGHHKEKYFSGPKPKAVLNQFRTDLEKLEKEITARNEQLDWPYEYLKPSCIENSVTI"}, "source": "PubChem BioAssay AID1671190", "about": "(National Center for Advancing Translational Sciences (NCATS), 2021)", "note": "In all, about 580,000 compounds went through this assay and about 6,100 (1.1%) were called active. This list was built around the results that the source calls inconclusive (neither active nor inactive); the mix of calls is not that of the screen. The call rests on the fitted dose curve; in most records, active means well fitted inhibition curve with a large enough effect; inconclusive means small, poorly fitted or top-dose-only effect, or another doubt; inactive means no such curve, though single readings can be large or run the other way. A potency beside an inconclusive call is a rough fit, not a confirmed value. On the % scale 0 is the no-effect control and ±100 the full control effect; potency means the concentration at half of the fitted maximal effect."}
{"biological_target": "Polyunsaturated fatty acid lipoxygenase ALOX12 (Homo sapiens) (UniProt P18054)", "assay": "Primary qHTS assay for inhibitors of human arachidonate 12S-lipoxygenase (ALOX12): Round 2", "conditions": "purified 12hLO, xylenol orange hydroperoxide absorbance; activity change, negative = inhibition: at 108 µM (top of the series) unless noted", "how_it_was_run": "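Hydroperoxide product was detected by ferrous iron/xylenol orange as the 573 to 405 nm absorbance ratio. Arachidonic acid at 40 uM (final) was turned over for 30 min at room temperature by 150 nM human 12hLO, pH 7.0 Hepes buffer, after 15 min compound preincubation.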"}
{"compound": "COc1ccccc1-n1c(-c2cc(-c3ccc(F)cc3)n[nH]2)n[nH]c1=S", "Potency": "active: 39.8 µM"}
{"compound": "CS(=O)(=O)c1cccc(C(=O)N2CCCN(C(=O)c3ccccc3)CC2)c1", "activity change, negative = inhibition": "inactive: 8.8%"}
{"compound": "CC(OC(=O)c1ccc(-n2cnnn2)cc1)C(=O)N1CCc2ccccc21", "note": "(stereo unspecified)", "activity change, negative = inhibition": "inactive: -23.4%"}
{"compound": "Cc1c(NC(=O)Nc2c(Cl)cccc2Cl)c(=O)n(-c2ccccc2)n1C", "activity change, negative = inhibition": "inactive: -0.406%"}
{"compound": "CCC1c2ccsc2CCN1C(=O)/C=C/c1ccccc1C", "note": "(stereo unspecified)", "Potency": "inconclusive: 112 µM [inhibitor, single point]"}
{"compound": "CCOC(=O)c1c(N)n(-c2ccc(OCC)cc2)c2nc3ccccc3nc12", "Potency": "inconclusive: 63.1 µM [inhibitor, partial curve, poor fit]"}
{"compound": "O=c1[nH]cnc2c1N=C(c1cccc([N+](=O)[O-])c1)CC(c1ccccc1)N2", "note": "(stereo unspecified)", "Potency": "inconclusive: 89.1 µM [inhibitor, partial curve, poor fit]"}
{"compound": "Cc1cc(Nc2cc(Cl)ccc2C)n2nc(-c3ccccc3)nc2n1", "activity change, negative = inhibition": "inactive: -8.66%"}
{"compound": "CC(=O)c1cccc(NC(=O)Cn2ccn3nc(-c4ccccc4)cc3c2=O)c1", "Potency": "inconclusive: 158 µM [inhibitor, partial curve, poor fit]"}
{"compound": "O=C(NCCN1CCCCCC1)C1CC=CCC1", "note": "(stereo unspecified)", "Potency": "inconclusive: 15.8 µM [inhibitor, full curve, poor fit]"}
{"compound": "O=C(N[C@@H]1CN(C(=O)Nc2ccc(F)cc2)CCC[C@H]1O)c1ccc(OCCN2CCCC2)cc1", "Potency": "inconclusive: 100 µM [inhibitor, partial curve, poor fit]"}
{"compound": "CCCn1c(=O)c(Cc2ccccc2)c(O)c2ccccc21", "activity change, negative = inhibition": "inactive: 0%"}
{"compound": "CCCC(C)c1nnc(NC(=O)CCS(=O)(=O)c2ccccc2)s1", "note": "(stereo unspecified)", "Potency": "inconclusive: 50.1 µM [inhibitor, partial curve, poor fit]"}
{"compound": "Cc1cc(C)c2c(NC(=O)c3ccccc3Cl)c(C(=O)NCc3ccc(Cl)cc3)sc2n1", "Potency": "inconclusive: 112 µM [inhibitor, partial curve, poor fit]"}
{"compound": "CC(=O)N1CC2(CCN(Cc3cc4ccccc4[nH]3)C2)Cc2ccccc21", "note": "(stereo unspecified)", "Potency": "inconclusive: 28.2 µM [inhibitor, full curve, poor fit]"}
{"compound": "Cc1ccc(NC(=O)c2ccc(S(=O)(=O)NCC(C)O)cc2)cc1Cl", "note": "(stereo unspecified)", "Potency": "inconclusive: 63.1 µM [inhibitor, partial curve, poor fit]"}
{"compound": "CN1CCN(CCCNC(=O)c2ccc(/C=C3\\Sc4ccccc4N(Cc4ccccc4F)C3=O)cc2)CC1", "Potency": "inconclusive: 79.4 µM [inhibitor, partial curve, poor fit]"}
{"compound": "Cc1cc(C)n2nc(C(=O)OCC(=O)Nc3ccc(Cl)cc3)nc2n1", "Potency": "inconclusive: 89.1 µM [inhibitor, partial curve, poor fit]"}
{"compound": "Cc1ccccc1-n1nc(C)c(CCC(=O)N(C)C(C)C)c1Oc1ccccc1F", "activity change, negative = inhibition": "inactive: 23.9%"}
{"compound": "Cc1ccc(CN(Cc2cccn2-c2nnc(N3CCCC3=O)s2)C(=O)Nc2ccccc2Cl)cc1", "activity change, negative = inhibition": "inactive: -16.5%"}
{"compound": "COCCNC(=O)CSc1nnc(-c2ccc(C)cc2)c(-c2ccc(C)cc2)n1", "activity change, negative = inhibition": "inactive: -14%"}
{"compound": "COc1ccc(C)cc1-n1nnc(-c2nc(-c3ccccc3C)no2)c1N", "Potency": "inconclusive: 44.7 µM [inhibitor, partial curve, poor fit]"}
{"compound": "Cc1ccc(NC(=O)CN(C)C(=O)CCC(=O)c2cccs2)cc1", "Potency": "inconclusive: 70.8 µM [inhibitor, partial curve, poor fit]"}
{"compound": "CC1(C(=O)N2CCOCC2)CCCCC1", "Potency": "inconclusive: 28.2 µM [inhibitor, partial curve, poor fit]"}
{"compound": "CC(=O)Nc1c(C)noc1/C=C\\c1ccc(C)c(S(=O)(=O)Nc2cccc(C)c2C)c1", "activity change, negative = inhibition": "inactive: -7.49%"}
{"compound": "O=C1C(n2ccc3ccccc32)c2ccccc2N1Cc1ccc(Cl)nc1", "note": "(stereo unspecified)", "Potency": "inconclusive: 89.1 µM [inhibitor, partial curve, poor fit]"}
{"compound": "O=C(CCSc1nc(Cl)nc2nc[nH]c12)NCc1ccccc1", "Potency": "inconclusive: 100 µM [inhibitor, partial curve, poor fit]"}
{"compound": "CCS(=O)(=O)c1ccc(-c2csc(-c3ccccc3Cl)n2)c(Cl)c1Cl", "Potency": "inconclusive: 22.4 µM [inhibitor, partial curve, poor fit]"}
{"compound": "Cc1ccc(CNC(=O)Cn2cnc(C(=O)Nc3ccc(C)c(C)c3)n2)o1", "Potency": "inconclusive: 39.8 µM [inhibitor, partial curve, poor fit]"}
{"compound": "CCc1cccc2cc(C(=O)O)[nH]c12", "activity change, negative = inhibition": "inactive: -35.7%"}
{"compound": "CC(=O)N1C(=O)/C(=C2\\SC(=S)N(NS(=O)(=O)c3ccc(C)cc3)C2=O)c2ccccc21", "Potency": "active: 44.7 µM"}
{"compound": "Cc1ccccc1-c1nc2ccc(NC(=O)C3CC3)cc2o1", "Potency": "inconclusive: 112 µM [inhibitor, single point]"}
{"compound": "Cc1nn2c(NC(C)C)c3c(nc2c1-c1ccccc1)CCC3", "activity change, negative = inhibition": "inactive: -24.7%"}
{"compound": "COc1ccc(C)cc1-n1nnc(-c2nc(-c3cccs3)no2)c1N", "Potency": "inconclusive: 100 µM [inhibitor, single point]"}
{"compound": "O=C(CCc1ccccc1)Nc1cc(C(=O)O)cc(C(=O)O)c1", "Potency": "inconclusive: 50.1 µM [inhibitor, partial curve, poor fit]"}
{"compound": "NS(=O)(=O)c1ccc(N/N=C/c2ccc(Cl)c([N+](=O)[O-])c2)c([N+](=O)[O-])c1", "activity change, negative = inhibition": "inactive: -1.55%"}
{"compound": "COC(=O)c1c(C(=O)OC)c2cccc3cc(-c4ccccc4)c4ccc1c4n32", "Potency": "inconclusive: 5.62 µM [inhibitor, full curve]"}
{"compound": "CC(=O)c1ccc(-c2cccc([C@H]3[C@@H]4C=CC[C@@H](C)[C@@H]4C(=O)N3Cc3ccccc3)c2)cc1", "Potency": "inconclusive: 39.8 µM [inhibitor, partial curve]"}
{"compound": "CNC(=O)C1=NO[C@@H]2CN(CCc3ccccc3)C[C@H]12", "activity change, negative = inhibition": "inactive: 10.1% [at 176 µM]"}
{"compound": "CCOCCCNC(=O)C1CCN(Cc2ccc(OCc3ccccc3)c(OC)c2)CC1", "Potency": "inconclusive: 3.16 µM [inhibitor, full curve, poor fit]"}
{"compound": "CCOC(=O)c1c(C)[nH]c(C(=O)OCC(=O)c2ccc3c(c2)NC(=O)CO3)c1C", "Potency": "inconclusive: 1 µM [inhibitor, full curve, poor fit]"}
